No constants are given. Whether binding was seen depends on the method and setting. For some of these results: Binding seen in cells or lysates may run through a third protein. Some results given as binding are weak or reduced against the parent protein; the word gives no strength. For some of these results: Where a sequence is shown, tags or fusion partners need not be part of it. Values belong to the binder of their own block, whether it stands above or below them.
Columns and labels:
[1] = biological target: T1, PLS linked to a C-terminal GFP (PLS:GFP), pro35S::PLS:GFP (Arabidopsis thaliana) (UniProt Q8LLV8); test: co-IP; anti-GFP beads on protein extract of N. benthamiana leaves co-expressing PLS:GFP and ETR1:HA; blot with anti-HA; with or without EDTA
T1 sequence: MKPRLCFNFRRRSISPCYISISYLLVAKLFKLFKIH

[2] = biological target: T2, ETR1 with a C-terminal HA tag (ETR1:HA), pro35S::ETR1:HA (Arabidopsis) (UniProt P49333); test: co-IP; anti-HA beads on protein extract of N. benthamiana leaves co-expressing ETR1:HA and PLS:GFP or GFP, 3 days after infiltration; blot with anti-GFP; with 0.5 μM CuSO4 or 2 mM EDTA added to the extract
T2 sequence: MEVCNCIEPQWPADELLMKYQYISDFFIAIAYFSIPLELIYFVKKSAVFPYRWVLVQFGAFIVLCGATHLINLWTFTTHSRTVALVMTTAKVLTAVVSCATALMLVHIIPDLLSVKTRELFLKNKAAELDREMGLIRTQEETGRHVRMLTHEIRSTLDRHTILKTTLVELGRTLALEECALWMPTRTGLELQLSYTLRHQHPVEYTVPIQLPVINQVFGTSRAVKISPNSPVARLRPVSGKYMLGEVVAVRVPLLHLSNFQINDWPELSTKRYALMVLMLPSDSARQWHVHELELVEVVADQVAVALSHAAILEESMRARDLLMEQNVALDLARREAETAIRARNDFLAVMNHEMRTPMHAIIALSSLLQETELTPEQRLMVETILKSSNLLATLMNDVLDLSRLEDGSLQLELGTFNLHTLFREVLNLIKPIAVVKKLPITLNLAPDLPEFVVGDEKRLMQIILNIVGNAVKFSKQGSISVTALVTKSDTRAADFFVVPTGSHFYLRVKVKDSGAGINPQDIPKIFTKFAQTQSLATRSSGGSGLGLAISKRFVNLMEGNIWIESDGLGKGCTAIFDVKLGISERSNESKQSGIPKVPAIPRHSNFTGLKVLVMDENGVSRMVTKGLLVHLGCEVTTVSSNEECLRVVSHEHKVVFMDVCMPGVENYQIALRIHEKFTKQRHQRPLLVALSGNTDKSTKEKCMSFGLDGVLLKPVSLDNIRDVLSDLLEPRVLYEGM

[3] = biological target: T2, ETR1 with a C-terminal HA tag (ETR1:HA), pro35S::ETR1:HA (Arabidopsis); test: co-IP; the PLS:GFP and ETR1:HA pair of the competition experiment, N. benthamiana leaf extract, with 0.5 μM CuSO4 and 50 μM MG-132
[4] = biological target: T3, ETR1^306−738, recombinant, purified and fluorescently labeled (Arabidopsis) (UniProt P49333); test: MST; fluorescently labeled ETR1 variant at 50 nM, synthetic PLS diluted serially from 94 μM; 50 mM Tris, 300 mM NaCl, pH 7.6 (or 50 mM HEPES, 150 mM NaCl), 0.015% (w/v) FosCholine 16; premium capillaries, 50% LED and 50% MST power; both purified
T3 sequence (chain, fluorescent label (dye and site not stated)): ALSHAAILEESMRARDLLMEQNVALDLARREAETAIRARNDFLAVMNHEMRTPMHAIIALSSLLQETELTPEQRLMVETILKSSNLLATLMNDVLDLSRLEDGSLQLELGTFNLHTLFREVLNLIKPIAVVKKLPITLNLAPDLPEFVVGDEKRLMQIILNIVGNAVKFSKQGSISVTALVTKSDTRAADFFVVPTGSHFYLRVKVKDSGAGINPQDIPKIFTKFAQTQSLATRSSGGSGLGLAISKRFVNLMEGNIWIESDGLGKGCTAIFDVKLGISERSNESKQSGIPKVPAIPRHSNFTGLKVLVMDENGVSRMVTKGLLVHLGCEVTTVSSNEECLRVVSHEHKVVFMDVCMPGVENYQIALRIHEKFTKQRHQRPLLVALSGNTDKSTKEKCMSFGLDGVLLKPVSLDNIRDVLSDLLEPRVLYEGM

- binding [1]: binds
B1: ETR1 with a C-terminal HA tag (ETR1:HA), pro35S::ETR1:HA (receptor, Arabidopsis, UniProt P49333 1-738, looked up)
chain: MEVCNCIEPQWPADELLMKYQYISDFFIAIAYFSIPLELIYFVKKSAVFPYRWVLVQFGAFIVLCGATHLINLWTFTTHSRTVALVMTTAKVLTAVVSCATALMLVHIIPDLLSVKTRELFLKNKAAELDREMGLIRTQEETGRHVRMLTHEIRSTLDRHTILKTTLVELGRTLALEECALWMPTRTGLELQLSYTLRHQHPVEYTVPIQLPVINQVFGTSRAVKISPNSPVARLRPVSGKYMLGEVVAVRVPLLHLSNFQINDWPELSTKRYALMVLMLPSDSARQWHVHELELVEVVADQVAVALSHAAILEESMRARDLLMEQNVALDLARREAETAIRARNDFLAVMNHEMRTPMHAIIALSSLLQETELTPEQRLMVETILKSSNLLATLMNDVLDLSRLEDGSLQLELGTFNLHTLFREVLNLIKPIAVVKKLPITLNLAPDLPEFVVGDEKRLMQIILNIVGNAVKFSKQGSISVTALVTKSDTRAADFFVVPTGSHFYLRVKVKDSGAGINPQDIPKIFTKFAQTQSLATRSSGGSGLGLAISKRFVNLMEGNIWIESDGLGKGCTAIFDVKLGISERSNESKQSGIPKVPAIPRHSNFTGLKVLVMDENGVSRMVTKGLLVHLGCEVTTVSSNEECLRVVSHEHKVVFMDVCMPGVENYQIALRIHEKFTKQRHQRPLLVALSGNTDKSTKEKCMSFGLDGVLLKPVSLDNIRDVLSDLLEPRVLYEGM
notes: the ETR1 cDNA in pEarlyGate301; also called ETHYLENE RESPONSE 1; source: N. benthamiana leaves, transient expression by Agrobacterium infiltration, in protein extract; not shown: HA, C-terminal, kept

- binding [2]: binds
- binding [3]: binds
Binder: MKPRLCFNFRRRSISPCYISISYLLVAKLFKLFKIH (peptide, UniProt Q8LLV8 1-36) [PLS linked to a C-terminal GFP (PLS:GFP), pro35S::PLS:GFP]

Binder: MKPRLCFNFRRRSISPCYISISYLLVAKLFKLFKIH (peptide, UniProt Q8LLV8 1-36) [synthetic full-length POLARIS (PLS) peptide, PLS(FL)]
- binding [4]: no binding (tested: PLS diluted serially from 94 μM)

Reference: paper PMC12744750 (Plant Communications, 2025)
